Test results taken from the supplement of paper PMC11098740.
The list shows a part of the results. Repeats are few or missing, and single values can be far off.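 The assay uses a mixed pool of 41 HAP1 clones in which 61 cancer-associated proteins bear intron-inserted fluorescent tags, and clones are distinguished by image pattern. Results are compared against DMSO-treated control wells, and the BRD4 degrader dBET6 is the positive control.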

These compounds were tested against BRD4 (intron 10 mScarlet tag, HAP1) (UniProt O60885) (assay: BRD4 median nuclear fluorescence intensity change vs DMSO (log2 fold change); higher = more BRD4 protein). Details: 6 h.

Structure (SMILES) | BRD4 median nuclear fluorescence intensity change (log2)
CN(C)c1ccc(C(=O)c2ccc(N(C)C)cc2)cc1 (10 µM) | 0.0113
CC(=O)c1c(C)cc(C)c(CNc2ccc(C#N)c(Cl)c2)c1C (10 µM) | 0.0254
CN(C)C(=S)SSC(=S)N(C)C (1 µM) | 0.125
C[C@@H]1C[C@@H]([C@H](O)CC2CC(=O)NC(=O)C2)C(=O)[C@@H](C)C1 [cycloheximide] (10 µM) | -0.231
